Taken from: PubChem BioAssay AID743121 (NCATS, 2013)

Screen: 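Knock-downs that sensitise breast cancer cells to camptothecin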 (primary screen)
Cell system: MDA-MB-231 cells, a human breast cancer line
Reagents: single siRNA against human genes, 20 nM siRNA (0.8 pmol per well)
Duration: 120 h (drug added 48 h after transfection, read 72 h later)
Conditions: camptothecin 20 nM (about EC30) for 72 h; vehicle 0.1% DMSO in parallel plates
Detection: 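Cell viability by ATP luminescence (CellTiter-Glo) as % of non-targeting siRNA wells, and the log2 ratio of viability without drug over viability with camptothecin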
Direction: log2 vehicle/camptothecin viability: higher = stronger sensitisation to camptothecin; viability with camptothecin: higher = more viable cells
Hit rule: 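Active genes have an RSA gene-level p-value below 0.001, computed from the ratios of their separate siRNAs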
The deposit covers about 26,000 reagents; below is a random part of them. 167 of all reagents (0.63%) were called active. 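Calls are per gene from RSA p-values that are not deposited; an individual active-marked siRNA can sensitise only weakly.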 The numbers tell different reagents against one gene apart. Not all columns of the deposit are shown. No sequences are given here.

no.	Target gene	reagent	log2 vehicle/camptothecin viability	viability with camptothecin (% of control)	call
1	CCND1	1	-0.254	108	inactive
2	CCND1	2	-0.149	84.2	inactive
3	CCND1	3	-0.158	74	inactive
4	CCND1	4	0.0306	41.1	inactive
5	FBXL18	1	-0.413	99.5	inactive
6	FBXL18	2	-0.521	79.8	inactive
7	FBXL18	3	-0.105	61.6	inactive
8	FBXL18	4	-0.484	91.5	inactive
9	NPAS3	1	0.222	75.3	inactive
10	NPAS3	2	0.261	57.5	inactive
11	NPAS3	3	-0.0806	86	inactive
12	NPAS3	4	-0.0365	47	inactive
13	STRADB	1	-0.0946	95.5	inactive
14	STRADB	2	-0.323	68.2	inactive
15	STRADB	3	-0.055	41.2	inactive
16	STRADB	4	-0.239	98.5	inactive
17	MEX3A	1	-0.205	102	inactive
18	MEX3A	2	-0.42	97.1	inactive
19	MEX3A	3	-0.415	55.3	inactive
20	MEX3A	4	-0.0863	96.4	inactive
21	CTAG1B	1	-0.0709	62.1	inactive
22	CTAG1B	2	-0.0651	84.5	inactive
23	CTAG1B	3	0.375	57.4	inactive
24	TRH	1	-0.077	103	inactive
25	TRH	2	0.782	44.6	inactive
26	TRH	3	0.568	27.5	inactive
27	TRH	4	-0.406	75.7	inactive
28	APRT	1	-0.0295	77.4	inactive
29	APRT	2	-0.529	74.9	inactive
30	APRT	3	-0.248	59.5	inactive
31	APRT	4	-0.118	88.6	inactive
32	UBE2G2	1	-0.0559	112	inactive
33	UBE2G2	2	-0.106	94	inactive
34	UBE2G2	3	0.0266	92.4	inactive
35	UBE2G2	4	-0.285	84.6	inactive
36	CA11	1	-0.53	82.9	inactive
37	CA11	2	0.0942	66.2	inactive
38	CA11	3	-0.381	40.2	inactive
39	CAMK1	1	-0.579	77.7	inactive
40	CAMK1	2	0.224	58.3	inactive
41	CAMK1	3	0.0329	95.8	inactive
42	CAMK1	4	0.0143	77.5	inactive
43	IL37	1	-0.343	62	inactive
44	IL37	2	0.364	19.6	inactive
45	IL37	3	-0.0407	73.2	inactive
46	IL37	4	0.0844	88.3	inactive
47	ZMYM2	1	1.04	22.7	inactive
48	ZMYM2	2	-0.0888	85	inactive
49	ZMYM2	3	-0.248	82.7	inactive
50	ZMYM2	4	-0.35	92.7	inactive
51	COQ6	1	-0.149	112	inactive
52	COQ6	2	-0.0144	94.1	inactive
53	COQ6	3	-0.162	99.2	inactive
54	COQ6	4	0.0219	30.2	inactive
55	CTSA	1	-0.471	87.1	inactive
56	CTSA	2	0.145	72.8	inactive
57	CTSA	3	-0.282	25.2	inactive
58	MAPRE1	1	-0.277	107	inactive
59	MAPRE1	2	-0.412	90.1	inactive
60	MAPRE1	3	0.0436	83.5	inactive
61	PTPRO	1	0.141	57.6	active
62	PTPRO	2	0.576	31.4	active
63	PTPRO	3	0.326	34.9	active
64	PTPRO	4	0.239	37.7	active
65	RPS6KL1	1	-0.775	67.1	inactive
66	RPS6KL1	2	0.109	82.5	inactive
67	RPS6KL1	3	-0.444	67.3	inactive
68	RPS6KL1	4	-0.174	44.6	inactive
